Reference: PubChem BioAssay AID651900 (Broad Institute, 2012)
Some of the results follow. Further columns of the screen follow, without active or inactive calls.

Assay: cytotoxicity in NIH3T3 fibroblasts, dose response, cytotoxicity control, cell-based, plate reader, cherry-pick, two tests (AID 651900)
Conditions: test 2 concentration series, at 26 µM
`CC(CNC(=O)CCCn1ncn2c(cc3occc32)c1=O)c1ccccc1` (configuration not stated) gave an activity of -5.23%.
`Cc1cc(C(=O)CSc2nncs2)c(C)n1-c1ccc2c(c1)OCO2` showed an activity of -5.76%.
For `Cc1cnc(C(=O)NC2CC(C)(C)Cc3c2cnn3-c2cccc(F)c2)cn1` (configuration not stated), the activity was 2.96%.
`CN1CCN(c2ncnc3c2[nH]c2ccc(F)cc23)CC1` gave an activity of -5.32%.
In the case of `CN1CCCC1CCOC(C)(c1ccccc1)c1ccc(Cl)cc1` (configuration not stated), the activity is reported as -31.8%.
`COc1ccc(NC(=O)c2ccc(S(=O)(=O)N(C)C)cc2)cc1OC` showed an activity of -4.93%.
With `C[C@@H](C(=O)N1CCN(Cc2ccc3c(c2)OCO3)CC1)n1nnc2ccccc2c1=O` the activity was -2.25%.
Work on `CCc1nn(CC(=O)N2CCN(Cc3ccc4c(c3)OCO4)CC2)c(=O)c2cc3occc3n12` yielded an activity of -7.6%.
In the case of `COc1ccc(C(C)NC(=O)Nc2ccc(C(C)=O)cc2)cc1OC` (configuration not stated), the activity is reported as 4.98%.
With `CCC(CO)[n+]1c(C)cc(/C=C2\Sc3ccccc3N2Cc2ccccc2)cc1C` (configuration not stated) the activity was -8.96%.
Compound `COC(=O)c1c(C(=O)OC)c(-c2ccc(F)cc2)n2c1CS(=O)C2` (configuration not stated) has an activity of -4.71%.
For `NC(=O)c1ccc(Oc2cccc3cccnc23)c([N+](=O)[O-])c1`, the activity was 6.68%.
With `COc1ccc([N+](=O)[O-])cc1C(=O)NC1CCN(Cc2ccccc2)CC1` the activity was 0.517%.
`CC1CN(C(=O)Nc2ccc3snnc3c2)c2ccccc21` (configuration not stated) gave an activity of -1.06%.
`Cc1cc(C(=O)NC2CC(C)(C)Cc3c2cnn3-c2cccc(F)c2)nn1C` (configuration not stated) showed an activity of -8.34%.
For `COc1ccc(-c2n[nH]c3c2CN(C(=O)c2ccc(OC)c(OC)c2)CC3)cc1`, the activity was 6.6%.
Work on `Cc1ccc(-c2nn(CCC(=O)Nc3cccnc3)c(=O)c3ccccc23)cc1` yielded an activity of -5.79%.
